Measurements from PMC4092027.
Negatives hold for the conditions tested. Protein sequences can lack the tags named with them.

These sequences were tested on T1, PfsR (Synechocystis sp. PCC 6803) (assay: EMSA). Conditions: 2 uM PfsR, 0.05 uM DNA; 4 mM Tris-HCl pH 7.5, 12 mM HEPES pH 7.5, 50 mM NaCl, 10 mM MgCl2, 12% glycerol; 25 C, 30 min; 6% native PAGE in 0.5x TBE; recombinant protein; residues 1-203; protein details: His6 (pQE-70); probe letters rebuilt from the primers and the genome.
T1 sequence (looked up): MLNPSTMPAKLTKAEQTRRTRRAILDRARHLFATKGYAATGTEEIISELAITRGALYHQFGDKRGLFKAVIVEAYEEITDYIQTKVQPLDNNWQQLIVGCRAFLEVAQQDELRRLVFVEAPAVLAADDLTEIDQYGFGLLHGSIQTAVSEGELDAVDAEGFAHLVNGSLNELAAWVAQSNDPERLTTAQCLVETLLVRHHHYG
“ATTAAGCAATACCTTGGGAGGAGAGGGGAGAACGGTCAAAAAATTAAACACGGCAAATCAAACACAGGGGCAAAGCAAATTCTTCCGGGTCAGGAACACTAGGCCGTAACAGGGAAAATTAACTGCTGGGGGGATCAGTGGGTTTAAACGGGTCTCCCCCAATGCCCAATTCCTTTTTGCTTTCCTTAAGACTCTTCCAAAGTTGCTTAATGCGCTCGTAAGCTTCCATCGTCTCGATTTTACCCGCTGTCTCTAGGTTACAAATAACGCTCACCTTTTGGGCAAATTCTTGCAAATTTGCGTTGAAAACCAGCTTCTCCGGTTTGAAATCCCCATAATATTTGCTTTTGGGATACAGAAATGCGTCTTTTTCCGGATTATCAGTCATATCATCTCTTCGACGGACAAGAACAGTACCCATTGTAAAGGTATTGACCGTTTTCCGGGGTTGACCGAAGGCAAAGGTATGCTTAATTGAGACCAGATAATGCCAAGGGAACT (double strand) [futB promoter 500 bp]”: no binding. “CACATCTGGACGACTGGACTGGACTGACCCCCTTTGGCAATGACTCACCATCTCCGCCCTACTCTCCTAAGGTAATCTGCACCAATTGGGCTTCACTACGGCGCATGGCCACTTCGGTGGTGCTACCAATGCGGAGGTGGAGTGGTCCCCCCAAACCAGCCTTGCGGAGCAATTGAATTGGTTTATCAGGAATTATTCCCATTGCTTCTAGGCGATTAACTAACCCCTGACCGTGGTTTCCTAGTAAAATTTTCTCCACAAAAGCCAACTGACCCACCGATAAATCCAATAACGTCATGGTTTTCCCAAAACTGCAAATAATTCTCAACTATTAAGTTAGCATTATCTGTTCAGAATAAATATCAAAAATCACTGGAATAATTGTGAGTATAATCACTTACCATTGATTAAATTCCATGCAACCTATGGAAAAGTCCTGCCCAAGACAGATGCTGGGAGCATTGCTGTAGATCGCCAAAAATCTCCGCAACTATTTGGGAC (double strand) [feoB promoter 500 bp]”: no binding. “TGACATAATTCCGGTGGCTAAAAATCTGATTGGTGGTTAGAGGCCCCAACCTCCAGTTCCACTGACCATGGTTCACAAATCTTCCCTCTGTTACGCCAGGGGGATTTTATTTGTCCAGGTTACTATTAATAATAAATTTTGTTAGTGAGTAGAGATTTCCATCAGCTAGAGCTATGACAACCCAGGGTAAAGGGGAGTATTACCAAAGTTGAGACTCGGCTAAATTTTTCTTCCTAATCCTTGAAAGTCAAGCAGTATAAACTTTTAAGATCCTTTGCGCCCAATCAGAAAGATTTTTTCCTCAGGTTTTACGAGCAAAATAATAAGATTTATTTATGTCGTTTGGTTGAAGACCTAATTAAATAATCAGAAAATTACTCATTATATCTCCACTGCTGATAAAATTATTGAGAATTACTTTTATTAGAGGAGTGAAAAAGTTCAGCCACCATGGTCCAAAAGTTATCCCGTCGCCTATTTTTGTCCATTGGAACCGCCTTC (double strand) [futA1 promoter 500 bp]”: no binding. “AGAGTCTTCTATGGAAAGGCGGGCAACGGGAGAAAATTGGGCGACTGTCATAGGAACCAGGGGCAAAAAAGCAGCAACAATAGTGGGAGGACTGATCCCGTTTAAAACTCAGACCTGATTCAGATCTAAACTGTTTAAAGCAAGTATTTAAACGGTACTTTAAATAAGAATTATTTGCAAGAGTTAAGGTTAACATATGATTTCAGCCGACCTCAATCCCCACTCTGTCCCTTGGTGGATTCTTGCTCCCCAGGGCACTGAAGCTCAGGCGATCGCCAAGGGGTTGGGAAAAACTGACCAGATATATTTGCAGGCGATGCCAGTGGGGGCCACAGCGGTGCAATCTTTTTTGGCAAATCTGGCCCAAACCTGGGCGAAAAGTGAAAAGCCCCAAGGTTTATTGGTGATGGGGGTGACTGGGAGTTTATCTGCTGATTACGGCATTGGCCAGGCCCTTTGGGTAGAGCAATGTCAATATTGGGAGAGTGGGAACCATGGTCA (double strand) [futC promoter 500 bp]”: no binding.
